Measurements taken from patent US20120053225A1.
These are yes or no findings as the source states them, for the method shown. For some assays here: In cells and extracts the contact can be indirect. Some entries that bind do so weakly or less than the wild type.

By UniProt entry, the sequences of proteins in these tests, tags left out. Where a name states a change or a piece, a line headed by the entry shows the natural chain unless it says otherwise. Chains listed by the source or under a name are the forms on record and can include a tag or linker.
UniProt P31749: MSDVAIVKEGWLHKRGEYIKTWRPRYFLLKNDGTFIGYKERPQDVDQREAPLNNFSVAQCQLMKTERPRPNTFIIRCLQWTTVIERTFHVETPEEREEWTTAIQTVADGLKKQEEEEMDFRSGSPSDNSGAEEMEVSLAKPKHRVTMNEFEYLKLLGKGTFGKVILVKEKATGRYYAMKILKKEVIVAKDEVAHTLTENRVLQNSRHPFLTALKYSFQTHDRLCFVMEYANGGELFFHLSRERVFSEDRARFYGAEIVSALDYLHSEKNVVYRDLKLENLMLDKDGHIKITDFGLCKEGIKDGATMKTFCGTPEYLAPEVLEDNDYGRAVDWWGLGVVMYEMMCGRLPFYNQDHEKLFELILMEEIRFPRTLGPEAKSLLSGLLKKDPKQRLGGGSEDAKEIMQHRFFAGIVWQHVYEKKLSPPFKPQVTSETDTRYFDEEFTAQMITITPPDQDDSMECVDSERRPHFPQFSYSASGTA
UniProt P10275: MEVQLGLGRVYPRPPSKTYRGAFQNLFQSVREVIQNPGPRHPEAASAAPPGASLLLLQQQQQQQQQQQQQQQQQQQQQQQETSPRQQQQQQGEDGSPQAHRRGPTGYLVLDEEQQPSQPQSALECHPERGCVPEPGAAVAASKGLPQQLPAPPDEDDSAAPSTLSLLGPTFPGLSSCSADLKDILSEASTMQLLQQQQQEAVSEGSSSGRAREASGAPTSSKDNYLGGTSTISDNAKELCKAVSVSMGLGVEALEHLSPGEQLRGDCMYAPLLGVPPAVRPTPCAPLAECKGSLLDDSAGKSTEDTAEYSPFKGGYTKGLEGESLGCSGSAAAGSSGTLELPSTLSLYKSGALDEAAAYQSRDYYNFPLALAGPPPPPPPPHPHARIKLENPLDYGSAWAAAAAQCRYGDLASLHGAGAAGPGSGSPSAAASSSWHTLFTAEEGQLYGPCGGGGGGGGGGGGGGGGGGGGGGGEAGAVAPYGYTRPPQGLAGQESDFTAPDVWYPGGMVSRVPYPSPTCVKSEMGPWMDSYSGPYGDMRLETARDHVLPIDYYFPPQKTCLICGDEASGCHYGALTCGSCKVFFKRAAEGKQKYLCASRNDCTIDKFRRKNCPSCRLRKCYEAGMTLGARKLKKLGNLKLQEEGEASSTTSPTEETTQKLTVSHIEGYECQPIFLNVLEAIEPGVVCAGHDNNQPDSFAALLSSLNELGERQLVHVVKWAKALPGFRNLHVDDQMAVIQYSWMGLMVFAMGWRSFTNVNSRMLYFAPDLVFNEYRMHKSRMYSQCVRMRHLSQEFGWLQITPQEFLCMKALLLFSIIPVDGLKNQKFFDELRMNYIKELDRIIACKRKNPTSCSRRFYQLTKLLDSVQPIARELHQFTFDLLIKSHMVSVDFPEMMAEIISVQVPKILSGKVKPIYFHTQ
UniProt Q07912: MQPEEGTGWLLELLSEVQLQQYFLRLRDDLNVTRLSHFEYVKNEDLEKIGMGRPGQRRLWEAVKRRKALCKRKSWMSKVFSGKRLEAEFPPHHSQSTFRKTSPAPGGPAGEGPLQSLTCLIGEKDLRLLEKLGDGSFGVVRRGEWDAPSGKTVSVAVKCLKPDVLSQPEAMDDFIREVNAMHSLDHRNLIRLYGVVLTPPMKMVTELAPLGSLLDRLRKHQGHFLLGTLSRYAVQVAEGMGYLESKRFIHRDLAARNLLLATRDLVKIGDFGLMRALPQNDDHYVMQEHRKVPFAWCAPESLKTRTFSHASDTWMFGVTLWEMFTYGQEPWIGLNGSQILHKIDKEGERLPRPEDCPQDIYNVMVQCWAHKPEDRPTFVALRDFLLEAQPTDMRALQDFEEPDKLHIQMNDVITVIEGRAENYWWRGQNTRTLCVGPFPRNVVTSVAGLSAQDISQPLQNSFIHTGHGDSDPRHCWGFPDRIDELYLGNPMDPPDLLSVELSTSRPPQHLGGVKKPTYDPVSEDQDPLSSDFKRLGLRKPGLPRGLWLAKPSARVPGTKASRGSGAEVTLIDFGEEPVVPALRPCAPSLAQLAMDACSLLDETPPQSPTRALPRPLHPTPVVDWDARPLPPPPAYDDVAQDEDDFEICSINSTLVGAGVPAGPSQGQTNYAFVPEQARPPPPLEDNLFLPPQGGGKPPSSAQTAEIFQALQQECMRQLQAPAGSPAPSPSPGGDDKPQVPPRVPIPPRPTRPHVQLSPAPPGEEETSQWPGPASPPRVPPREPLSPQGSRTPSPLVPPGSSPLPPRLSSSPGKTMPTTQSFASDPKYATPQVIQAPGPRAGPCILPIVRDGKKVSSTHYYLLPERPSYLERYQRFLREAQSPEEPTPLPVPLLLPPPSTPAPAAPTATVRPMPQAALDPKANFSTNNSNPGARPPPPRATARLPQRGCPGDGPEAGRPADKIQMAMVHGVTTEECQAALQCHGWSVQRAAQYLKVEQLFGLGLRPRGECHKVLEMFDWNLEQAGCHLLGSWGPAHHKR
activated Ack1 (caAck, L487F mutant) (Q07912, form named): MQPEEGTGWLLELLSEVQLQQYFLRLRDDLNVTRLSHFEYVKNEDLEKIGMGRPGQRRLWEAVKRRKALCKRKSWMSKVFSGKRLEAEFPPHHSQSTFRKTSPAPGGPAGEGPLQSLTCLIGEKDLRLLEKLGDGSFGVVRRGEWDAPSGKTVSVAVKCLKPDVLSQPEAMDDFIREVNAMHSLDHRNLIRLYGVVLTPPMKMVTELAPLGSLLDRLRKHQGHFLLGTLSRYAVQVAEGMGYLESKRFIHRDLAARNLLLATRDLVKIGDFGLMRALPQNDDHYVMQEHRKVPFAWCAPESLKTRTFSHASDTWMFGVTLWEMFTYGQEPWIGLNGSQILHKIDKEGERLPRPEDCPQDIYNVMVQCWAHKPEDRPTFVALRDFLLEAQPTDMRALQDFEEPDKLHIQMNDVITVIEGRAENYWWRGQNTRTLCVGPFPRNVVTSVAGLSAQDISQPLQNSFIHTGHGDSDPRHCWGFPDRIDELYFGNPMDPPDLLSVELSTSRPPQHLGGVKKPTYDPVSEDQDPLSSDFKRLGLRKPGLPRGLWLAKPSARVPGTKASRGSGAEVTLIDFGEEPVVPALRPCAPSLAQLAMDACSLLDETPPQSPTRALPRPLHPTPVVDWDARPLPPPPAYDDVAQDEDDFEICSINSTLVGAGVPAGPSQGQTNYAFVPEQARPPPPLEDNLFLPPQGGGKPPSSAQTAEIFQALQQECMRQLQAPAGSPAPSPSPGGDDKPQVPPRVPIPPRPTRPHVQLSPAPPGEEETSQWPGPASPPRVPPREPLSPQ
UniProt O54967: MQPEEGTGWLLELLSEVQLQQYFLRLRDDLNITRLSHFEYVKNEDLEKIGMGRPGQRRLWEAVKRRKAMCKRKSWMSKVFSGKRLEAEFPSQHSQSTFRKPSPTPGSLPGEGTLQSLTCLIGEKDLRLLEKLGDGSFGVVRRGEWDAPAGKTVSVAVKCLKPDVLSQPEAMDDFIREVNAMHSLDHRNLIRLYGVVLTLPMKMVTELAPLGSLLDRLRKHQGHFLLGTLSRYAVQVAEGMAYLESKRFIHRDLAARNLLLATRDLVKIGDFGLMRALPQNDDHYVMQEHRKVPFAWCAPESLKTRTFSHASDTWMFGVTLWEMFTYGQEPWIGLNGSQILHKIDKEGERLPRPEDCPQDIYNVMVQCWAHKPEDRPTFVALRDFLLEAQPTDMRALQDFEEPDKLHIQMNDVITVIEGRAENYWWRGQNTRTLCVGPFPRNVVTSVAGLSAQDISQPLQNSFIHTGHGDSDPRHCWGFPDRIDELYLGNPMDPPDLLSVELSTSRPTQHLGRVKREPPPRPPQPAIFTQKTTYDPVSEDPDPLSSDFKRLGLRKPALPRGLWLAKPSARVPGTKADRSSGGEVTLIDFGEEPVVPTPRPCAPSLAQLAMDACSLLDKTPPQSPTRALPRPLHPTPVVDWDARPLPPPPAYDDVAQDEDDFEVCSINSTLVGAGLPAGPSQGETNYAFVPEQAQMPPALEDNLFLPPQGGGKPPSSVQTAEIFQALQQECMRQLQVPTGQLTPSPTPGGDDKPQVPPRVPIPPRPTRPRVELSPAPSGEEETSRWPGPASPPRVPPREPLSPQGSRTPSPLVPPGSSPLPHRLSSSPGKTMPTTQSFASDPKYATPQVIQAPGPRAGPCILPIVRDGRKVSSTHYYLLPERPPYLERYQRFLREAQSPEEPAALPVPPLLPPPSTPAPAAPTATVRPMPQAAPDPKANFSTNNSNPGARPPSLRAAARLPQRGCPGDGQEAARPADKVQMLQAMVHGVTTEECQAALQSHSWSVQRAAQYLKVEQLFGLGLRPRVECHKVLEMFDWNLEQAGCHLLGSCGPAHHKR

What was measured:
[1] = target: HA-tagged AKT (wild type) (UniProt P31749); test: GST pull-down with purified AKT
[2] = target: FLAG-tagged androgen receptor (UniProt P10275); test: pull-down of purified proteins on GST-Ack1 glutathione beads, immunoblot
[3] = target: HA-tagged AKT (wild type) (UniProt P31749); test: as above
[4] = target: endogenous AKT of 293T cells (human) (UniProt P31749); test: co-IP with HA antibodies from 293T cells, immunoblot with AKT antibodies
[5] = target: HA-tagged AKT (wild type) (UniProt P31749); test: co-IP with Myc antibodies from HEK293 cells, immunoblot with HA antibodies
[6] = target: HA-tagged AKT (wild type) (UniProt P31749); test: IP of HA-tagged AKT on HA-beads from HEK293T cells co-expressing caAck, Coomassie-stained gel
[7] = target: HA-tagged AKT (wild type) (UniProt P31749); test: co-IP with anti-Ack1 from MEF1&2KO cells expressing HA-tagged AKT (FIG. 16)
[8] = target: HA-tagged AKT (wild type) (UniProt P31749); test: in vitro binding assay with purified proteins, IP and immunoblot

GST-Ack1 (kinase, SH3 and CRIB domain), expressed in E. coli (from UniProt Q07912 110-476) (enzyme)
binding [1]: binds | binding [2]: binds | binding [3]: binds

HA-tagged Ack1 E346K point mutant (from UniProt Q07912 1-1038) (enzyme)
binding [4]: binds

activated Ack1 (caAck, L487F mutant) (from UniProt Q07912 1-787) (enzyme)
binding [5]: binds | binding [6]: binds

endogenous Ack1 of mouse embryo fibroblasts (from UniProt O54967 1-1055) (enzyme)
binding [7]: binds

purified tagged Ack1 expressed in HEK293T cells (from UniProt Q07912 1-1038) (enzyme)
binding [8]: binds
